Measured values published in the supplement of paper PMC11006884.
This is a selection; strong and weak results do not stand in their true shares.

compound: COC(=O)C#Cc1ccccc1 [methyl 3-phenylpropiolate]; experiment: log2 ratio of iodoacetamide-alkyne labeling of the cysteine site, DMSO over compound (competition); higher = stronger covalent engagement of the cysteine by the compound, active = 1 or more; conditions: 500 µM; treatment time 1 h; system: HEK293T cell lysate
In short: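 HEK293T lysate at 2 mg/mL was treated with vehicle or electrophile (500 µM) for 1 h at ambient temperature, then labelled with iodoacetamide alkyne (1 h), clicked to sCIP-TMT reagents, pooled, digested with trypsin overnight at 37 °C, enriched on streptavidin and eluted with acid. Peptides were analysed by Orbitrap Eclipse LC-MS/MS with FAIMS and quantified in FragPipe, using duplicate channels and three replicates, with cysteines quantified in only one replicate excluded. The log2 competition ratio for each cysteine is the mean control-channel reporter intensity divided by the mean compound-channel reporter intensity.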

log2 ratio of iodoacetamide-alkyne labeling, inactive:
GOLPH3L C70 (UniProt Q9H4A5) 0.00611, SARS2 C66 (UniProt Q9NP81) 0.211, GPHN C284 (UniProt Q9NQX3) 0.457, MRPL44 C53 (UniProt Q9H9J2) -0.0312, CACYBP C173 (UniProt Q9HB71) 0.182, C8orf33 C117 (UniProt Q9H7E9) 0.0832, OSBPL3 C520 (UniProt Q9H4L5) 0.0937, UniProt Q9H974_C324 0.619, SMC4 C190 (UniProt Q9NTJ3) 0.109, FARSB C151 (UniProt Q9NSD9) 0.117, LUC7L C97 (UniProt Q9NQ29) 0.36, BIRC6 C613 (UniProt Q9NR09) 0.352, UniProt Q9NSY1_C912 0.827, MRPL47 C87 (UniProt Q9HD33) -0.039, UniProt Q9NR48_C747 -0.0788, UniProt Q9H773_C162 0.268, PDS5B C1069 (UniProt Q9NTI5) 0.199, ZNF277 C215 (UniProt Q9NRM2) 0.0405, ANLN C210 (UniProt Q9NQW6) 0.514, OLA1 C55 (UniProt Q9NTK5) 0.0695, RNPEP C181 (UniProt Q9H4A4) 0.0149, MDN1 C4345 (UniProt Q9NU22) 0.187
